Test results published in publication PMC11211476.

Target: T1, Flag-OTUD5-WT (UniProt Q3U2S4)
T1 sequence: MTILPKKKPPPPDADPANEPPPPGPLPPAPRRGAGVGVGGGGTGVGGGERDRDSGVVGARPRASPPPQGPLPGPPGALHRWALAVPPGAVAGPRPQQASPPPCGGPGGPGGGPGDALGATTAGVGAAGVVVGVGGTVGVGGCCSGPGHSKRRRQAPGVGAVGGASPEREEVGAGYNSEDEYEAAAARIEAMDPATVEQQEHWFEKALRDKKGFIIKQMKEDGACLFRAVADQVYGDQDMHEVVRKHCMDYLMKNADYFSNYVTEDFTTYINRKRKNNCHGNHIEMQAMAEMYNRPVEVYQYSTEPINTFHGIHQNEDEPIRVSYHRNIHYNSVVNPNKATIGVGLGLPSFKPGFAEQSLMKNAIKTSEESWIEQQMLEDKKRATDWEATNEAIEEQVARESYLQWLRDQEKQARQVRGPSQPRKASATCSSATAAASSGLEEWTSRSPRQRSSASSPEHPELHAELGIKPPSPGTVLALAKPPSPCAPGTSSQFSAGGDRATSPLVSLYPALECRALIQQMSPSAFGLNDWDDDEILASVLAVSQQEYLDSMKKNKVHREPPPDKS
Assay: affinity purification with mass spectrometry; MPC5 cells transfected with Flag-vector or Flag-OTUD5; anti-Flag and protein A + G agarose beads; LC-MS/MS

B1: TGF-β-activated kinase 1 (TAK1), endogenous (enzyme, UniProt Q62073 1-579)
chain: MSTASAASSSSSSSASEMIEAPSQVLNFEEIDYKEIEVEEVVGRGAFGVVCKAKWRAKDVAIKQIESESERKAFIVELRQLSRVNHPNIVKLYGACLNPVCLVMEYAEGGSLYNVLHGAEPLPYYTAAHAMSWCLQCSQGVAYLHSMQPKALIHRDLKPPNLLLVAGGTVLKICDFGTACDIQTHMTNNKGSAAWMAPEVFEGSNYSEKCDVFSWGIILWEVITRRKPFDEIGGPAFRIMWAVHNGTRPPLIKNLPKPIESLMTRCWSKDPSQRPSMEEIVKIMTHLMRYFPGADEPLQYPCQYSDEGQSNSATSTGSFMDIASTNTSNKSDTNMEQVPATNDTIKRLESKLLKNQAKQQSESGRLSLGASRGSSVESLPPTSEGKRMSADMSEIEARIVATAGNGQPRRRSIQDLTVTGTEPGQVSSRSSSPSVRMITTSGPTSEKPARSHPWTPDDSTDTNGSDNSIPMAYLTLDHQLQPLAPCPNSKESMAVFEQHCKMAQEYMKVQTEIALLLQRKQELVAELDQDEKDQQNTSRLVQEHKKLLDENKSLSTYYQQCKKQLEVIRSQQQKRQGTS
binding: binds

Results are given in words; binding and its absence hold for the method and conditions named. In cells and extracts the contact can be indirect. These calls come from enrichment with a bait or labelling near it, and not all partners need be listed. Sequences can lack the tags named with a protein.
